Source: PubChem BioAssay AID504791 (Drosophila RNAi Screening Center, 2011)
The screen tested about 23,000 reagents; shown is a random part of those with a known target gene and a result. Over the whole deposit, 199 (0.86%) got an active call. 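Plate-scaled ratios behind the calls are not deposited; printed light signals are raw; many rows marked increased or decreased are still called inactive.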 A plus sign joins genes that one reagent is predicted to hit. Reagent sequences are not shown. Not stated in the record: the direction of the score.

- Assay: 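Genes whose knock-down strengthens or weakens small-RNA reporter silencing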 (primary screen)
- Cells: Drosophila S2-derived reporter cells
- Reagent: long dsRNA against Drosophila genes, about 150-250 ng dsRNA per well (siRNA assay); about 80-120 ng (miRNA assay)
- Time to read-out: about 5 days (siRNA assay); about 4 days (miRNA assay)
- Conditions: copper sulfate induction of reporters: 25 µM (siRNA assay); 200 mM stated (miRNA assay), 1-2 days before reading
- Measured: 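Dual luciferase assay: Renilla to firefly signal ratio in each well, scaled to the mean ratio of its plate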
- Call rule: 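a well was a first-pass pick when its plate-scaled ratio rose above 1.5 (siRNA assay) or 1.6 (miRNA assay), or dropped below 0.6; a gene counted only if two separate dsRNAs agreed on retest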

no.	Gene	amplicon	stable siRNA reporter change	miRNA reporter change	stable assay Renilla, run 1 (luminescence)	stable assay firefly, run 1 (luminescence)	Call
1	grim	DRSC11352	reporter ratio raised past the hit cutoff		6212	1.94e5	inactive
2	grim	DRSC23169			6471	4.50e5	inactive
3	CG5550	DRSC06943			6454	3.85e5	inactive
4	CG34047 (retired record)	DRSC07857			6036	4.44e5	inactive
5	CG34047 (retired record)	DRSC21689			8684	4.41e5	inactive
6	CG18518	DRSC01509			5770	4.54e5	inactive
7	CG17637	DRSC11740			7735	3.85e5	inactive
8	Ypel	DRSC17996			8559	7.47e5	inactive
9	CG5327	DRSC06930			6348	3.25e5	inactive
10	CG32117	DRSC21652			9697	4.48e5	inactive
11	maca	DRSC15738			7007	4.51e5	inactive
12	ine	DRSC00822			11973	6.56e5	inactive
13	mthl10	DRSC08504			7490	4.76e5	inactive
14	mthl10	DRSC08505			6259	4.11e5	inactive
15	Mst77F	DRSC11871			7107	3.98e5	inactive
16	Mcm5	DRSC16735			6698	3.53e5	inactive
17	CHKov2	DRSC14262			12506	6.59e5	inactive
18	betaTry	DRSC07582			5300	3.75e5	inactive
19	betaTry	DRSC22377			8643	5.40e5	inactive
20	CG7079	DRSC16192	reporter ratio raised past the hit cutoff		7587	2.39e5	inactive
21	bnk	DRSC16912			6866	4.22e5	inactive
22	CG6230	DRSC01989			20491	7.25e5	inactive
23	CG6938	DRSC10752			6816	4.81e5	inactive
24	SmydA-5	DRSC04867			6566	3.25e5	inactive
25	Prosalpha4	DRSC20271			6051	3.15e5	inactive
26	REPTOR	DRSC14626			7773	3.41e5	inactive
27	REPTOR	DRSC24359		reporter ratio lowered past the hit cutoff			inactive
28	Unc-115b + p24-2 + Unc-115a	DRSC16502			6999	3.99e5	inactive
29	wech	DRSC06606			95123	1.87e6	inactive
30	Egfr	DRSC03871			5278	3.08e5	inactive
31	Egfr	DRSC04613			11186	1.01e6	inactive
32	CG43795	DRSC04192			7362	5.11e5	inactive
33	CG43795	DRSC04193			7634	4.52e5	inactive
34	CG43795	DRSC04194			5100	3.31e5	inactive
35	CG43795	DRSC04309			5358	3.64e5	inactive
36	CG43795	DRSC04310			5483	4.04e5	inactive
37	CG43795	DRSC22826			3691	4.03e5	inactive
38	Spt7	DRSC19997			7106	4.75e5	inactive
39	Kyat	DRSC16147			6270	3.82e5	inactive
40	CG13285	DRSC09960			5579	4.09e5	inactive
41	Usp20-33	DRSC07196			7655	3.92e5	inactive
42	Obp57c + Obp57b	DRSC21914			9358	5.09e5	inactive
43	CG17377	DRSC00950			4108	4.31e5	inactive
44	CG17377	DRSC02615			9992	4.16e5	inactive
45	CG17377	DRSC21811			8447	4.59e5	inactive
46	Kank	DRSC05513			6611	4.10e5	inactive
47	Kank	DRSC05933		reporter ratio lowered past the hit cutoff	8285	5.01e5	inactive
48	Or83c	DRSC12359			7715	3.94e5	inactive
49	CG17376	DRSC21717	reporter ratio lowered past the hit cutoff		8834	5.87e5	inactive
50	CG32679	DRSC17644			5867	4.52e5	inactive
51	CG12689	DRSC17879			6982	3.44e5	inactive
52	Arp10	DRSC19448			7918	5.02e5	inactive
53	CG4367	DRSC15568			8143	4.10e5	inactive
54	CG15093	DRSC06522			9377	3.61e5	inactive
55	Rbp4	DRSC16818			7218	3.91e5	inactive
56	CG34461	DRSC10767			7468	5.21e5	inactive
57	Fcp1	DRSC04121			1.81e5	1.70e6	inactive
58	Fcp1	DRSC26715		reporter ratio lowered past the hit cutoff			active
59	Alg12	DRSC16416			6659	4.14e5	inactive
60	rg	DRSC17377			8331	4.18e5	inactive
61	rg	DRSC17726			8663	6.48e5	inactive
62	rg	DRSC18049			5623	3.64e5	inactive
63	CG10710	DRSC09784			6196	3.50e5	inactive
64	CG32806	DRSC21699			9070	3.96e5	inactive
65	CG31270 (retired record)	DRSC22252			9315	7.81e5	inactive
66	CG42697	DRSC05740			5287	4.12e5	inactive
67	twf	DRSC15466			7959	4.50e5	inactive
68	Mybbp1A	DRSC18788			7963	4.45e5	inactive
69	Ppcs	DRSC14127			8395	3.76e5	inactive
70	Fer1	DRSC12507			7278	6.39e5	inactive
71	Fer1	DRSC12555			6294	4.42e5	inactive
72	CG7544	DRSC07023			4519	3.80e5	inactive
73	c12.1	DRSC18750			5531	4.49e5	inactive
74	CG17776	DRSC18136			5811	3.78e5	inactive
75	CG5172	DRSC19936			4890	4.98e5	inactive
76	Prx1	DRSC10741			7114	3.04e5	inactive
77	ihog	DRSC03157			54465	2.07e5	inactive
78	CG10949	DRSC02112			9899	1.99e6	inactive
79	alpha-Est10	DRSC12613			7231	3.37e5	inactive
80	Nepl18	DRSC14879			5995	3.60e5	inactive
81	Gmppa	DRSC07108			6250	3.72e5	inactive
82	trc	DRSC11406			7246	4.83e5	inactive
83	Pp2A-29B	DRSC03400			6964	3.03e5	inactive
84	CG33140	DRSC06030			51248	1.60e6	inactive
85	Dip-B	DRSC16466			7698	4.70e5	inactive
86	Vm26Ab	DRSC03473	reporter ratio lowered past the hit cutoff		4032	4.06e5	inactive
87	CG32809	DRSC18507			4971	4.16e5	inactive
88	CG32809	DRSC18562			5832	3.25e5	inactive
89	CG32809	DRSC18592			7455	5.19e5	inactive
90	PSMG1	DRSC12297			9226	3.94e5	inactive
91	Polr3C	DRSC14490	reporter ratio lowered past the hit cutoff		3127	4.41e5	inactive
92	CG13250	DRSC11698			6587	3.64e5	inactive
93	nrv1	DRSC03382			12199	3.87e5	inactive
94	Obp57c	DRSC06384			6211	3.55e5	inactive
95	galla-1	DRSC05987			5751	2.93e5	inactive
96	CG31730	DRSC01308			5524	3.30e5	inactive
97	CG1889 + CG43386	DRSC17979			4979	3.38e5	inactive
98	Use1	DRSC10180			6795	4.51e5	inactive
99	RpL8	DRSC08532			6499	2.58e5	inactive
100	RpL8	DRSC08695			6370	2.59e5	inactive
101	Cpr78Cb	DRSC11847			7158	4.09e5	inactive
102	BomS6	DRSC21676	reporter ratio raised past the hit cutoff		4728	1.39e5	inactive
103	CG12522	DRSC09088			5279	4.29e5	inactive
104	CG4575 (retired record)	DRSC18372			5059	3.83e5	inactive
105	CG13924	DRSC08393			4468	2.99e5	inactive
106	CG12877	DRSC14565		reporter ratio raised past the hit cutoff	9475	4.44e5	inactive

Entries listed above with an active call:
Gene	amplicon	stable siRNA reporter change	miRNA reporter change	stable assay Renilla, run 1 (luminescence)	stable assay firefly, run 1 (luminescence)	Call
Fcp1	DRSC26715		reporter ratio lowered past the hit cutoff			active
